In the experiment the target is T1, CYRI-B-p17-GFP (UniProt Q921M7).
T1 sequence: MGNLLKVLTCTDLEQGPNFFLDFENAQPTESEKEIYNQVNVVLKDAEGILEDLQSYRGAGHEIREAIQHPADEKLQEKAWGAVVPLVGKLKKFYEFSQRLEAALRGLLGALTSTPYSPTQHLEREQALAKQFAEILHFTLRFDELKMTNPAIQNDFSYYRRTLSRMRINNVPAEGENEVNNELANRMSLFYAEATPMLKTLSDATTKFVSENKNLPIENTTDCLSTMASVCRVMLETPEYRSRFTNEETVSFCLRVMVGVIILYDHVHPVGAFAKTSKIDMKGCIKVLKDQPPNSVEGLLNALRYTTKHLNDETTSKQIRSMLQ
As to the kind of experiment: co-IP; GFP-Trap: lysate (1.5 mg protein) of B16-F1 cells transiently expressing GFP or CYRI-B-p17-GFP on GFP-Trap_A beads, 2 h at 4°C; 25 mM Tris-HCl pH 7.5, 100 mM NaCl, 5 mM MgCl2, 0.5% NP-40; blot probed with anti-ERC1 for endogenous ERC1.

No constants are given. Whether binding was seen depends on the method and setting. In cells and extracts the contact can be indirect. Tags and fused reporters may be left off the sequences shown.

B1: ERC1 (protein, UniProt Q99MI1 1-1120)
chain: MYGSARSVGKVEPSSQSPGRSPRLPRSPRLGHRRTNSTGGSSGNSVGGGSGKTLSMENIQSLNAAYATSGPMYLSDHENVGAETPKSTMTLGRSGGRLPYGVRMTAMGSSPNIASSGVASDTIAFGEHHLPPVSMASTVPHSLRQARDNTIMDLQTQLKEVLRENDLLRKDVEVKESKLSSSMNSIKTFWSPELKKERALRKDEASKITIWKEQYRVVQEENQHMQMTIQALQDELRIQRDLNQLFQQDSSSRTGEPCVAELTEENFQRLHAEHERQAKELFLLRKTLEEMELRIETQKQTLNARDESIKKLLEMLQSKGLSAKATEEDHERTRRLAEAEMHVHHLESLLEQKEKENNMLREEMHRRFENAPDSAKTKALQTVIEMKDSKISSMERGLRDLEEEIQMLKSNGALSSEEREEEMKQMEVYRSHSKFMKNKVEQLKEELSSKDAQGEELKKRAAGLQSEIGQVKQELSRKDTELLALQTKLETLTNQFSDSKQHIEVLKESLTAKEQRAAILQTEVDALRLRLEEKETMLNKKTKQIQDMAEEKGTQAGEIHDLKDMLDVKERKVNVLQKKIENLQEQLRDKEKQMSSLKERVKSLQADTTNTDTALTTLEEALADKERTIERLKEQRDRDEREKQEEIDTYKKDLKDLREKVSLLQGDLSEKEASLLDIKEHASSLASSGLKKDSRLKTLEIALEQKKEECLKMESQLKKAHEATLEARASPEMSDRIQQLEREISRYKDESSKAQTEVDRLLEILKEVENEKNDKDKKIAELESLTSRQVKDQNKKVANLKHKEQVEKKKSAQMLEEARRREDSLSDSSQQLQDSLRKKDDRIEELEEALRESVQITAEREMVLAQEESARTNAEKQVEELLMAMEKVKQELESMKAKLSSTQQSLAEKETHLTNLRAERRKHLEEVLEMKQEALLAAISEKDANIALLELSSSKKKTQEEVAALKREKDRLVQQLKQQTQNRMKLMADNYEDDHFRSSRSNQTNHKPSPDQIIQPLLELDQNRSKLKLYIGHLTALCHDRDPLILRGLTPPASYNADGEQAAWENELQQMTQEQLQNELEKVEGDNAELQEFANTILQQIADHCPDILEQVVNALEESS
In the case of B1, the binding entry is given as “no binding”.

The record behind these values is paper PMC12718634.
